From the supplement of paper PMC8728848
The list shows a part of the results.

Legend:
Test in all cases: glycan array binding signal (z-score within array); higher = stronger binding
Settings in all cases: glycan notation: IUPAC condensed, linker removed
[1] = target: Gal(a1-3)Gal(b1-4)GlcNAc
How it was run: (§1)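 From the Consortium for Functional Glycomics database, 3228 arrays were curated, keeping only those whose protein sequence was available. Binding is given as a within-array Z-score averaged across arrays sharing a protein sequence and across linkers. Negative Z-scores can be read as non-binding.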

[2] = target: Gal(a1-3)Gal(b1-4)GlcNAc(b1-3)GalNAc
How it was run: as §1

[3] = target: Gal(a1-3)Gal(b1-4)[Fuc(a1-3)]GlcNAc
How it was run: as §1

[4] = target: Gal(a1-3)Gal(b1-4)[Fuc(a1-3)]GlcNAc(b1-2)Man(a1-3)[Gal(a1-3)Gal(b1-4)[Fuc(a1-3)]GlcNAc(b1-2)Man(a1-6)]Man(b1-4)GlcNAc(b1-4)GlcNAc
How it was run: as §1

[5] = target: Gal(a1-3)GalNAc
How it was run: as §1

[6] = target: Gal(a1-3)[Gal(a1-4)]Gal(b1-4)GlcNAc
How it was run: as §1

[7] = target: Gal(a1-4)Gal(b1-3)GlcNAc(b1-2)Man(a1-3)[Gal(a1-4)Gal(b1-3)GlcNAc(b1-2)Man(a1-6)]Man(b1-4)GlcNAc(b1-4)GlcNAc
How it was run: as §1

[8] = target: Gal(a1-4)Gal(b1-4)Glc
How it was run: as §1

[9] = target: Gal(a1-4)Gal(b1-4)GlcNAc
How it was run: as §1

[10] = target: Gal(a1-4)Gal(b1-4)GlcNAc(b1-2)Man(a1-3)[Gal(a1-4)Gal(b1-4)GlcNAc(b1-2)Man(a1-6)]Man(b1-4)GlcNAc(b1-4)GlcNAc
How it was run: as §1

[11] = target: Gal(a1-4)Gal(b1-4)GlcNAc(b1-3)Gal(b1-4)Glc
How it was run: as §1

[12] = target: Gal(a1-4)GlcNAc
How it was run: as §1

[13] = target: Gal(a1-6)Glc
How it was run: as §1

[14] = target: Gal(b1-2)Gal
How it was run: as §1

[15] = target: Gal(b1-3)Gal
How it was run: as §1

[16] = target: Gal(b1-3)Gal(b1-4)GlcNAc
How it was run: as §1

[17] = target: Gal(b1-3)Gal(b1-4)GlcNAc(b1-2)Man(a1-3)[Gal(b1-3)Gal(b1-4)GlcNAc(b1-2)Man(a1-6)]Man(b1-4)GlcNAc(b1-4)GlcNAc
How it was run: as §1

[18] = target: Gal(b1-3)GalNAc
How it was run: as §1

[19] = target: Gal(b1-3)GalNAc(a1-3)[Fuc(a1-2)]Gal(b1-4)Glc
How it was run: as §1

[20] = target: Gal(b1-3)GalNAc(a1-3)[Fuc(a1-2)]Gal(b1-4)GlcNAc
How it was run: as §1

[21] = target: Gal(b1-3)GalNAc(b1-3)Gal(a1-4)Gal(b1-4)Glc
How it was run: as §1

[22] = target: Gal(b1-3)GalNAc(b1-4)Gal(b1-4)Glc
How it was run: as §1

[23] = target: Gal(b1-3)GalNAc(b1-4)[Neu5Ac(a2-3)]Gal(b1-4)Glc
How it was run: as §1

[24] = target: Gal(b1-3)GlcNAc
How it was run: as §1

[25] = target: Gal(b1-3)GlcNAc(a1-6)Gal(b1-4)GlcNAc
How it was run: as §1

[26] = target: Gal(b1-3)GlcNAc(b1-2)Man(a1-3)[Gal(b1-3)GlcNAc(b1-2)Man(a1-6)]Man(b1-4)GlcNAc(b1-4)GlcNAc
How it was run: as §1

[27] = target: Gal(b1-3)GlcNAc(b1-2)Man(a1-3)[Gal(b1-3)GlcNAc(b1-2)Man(a1-6)]Man(b1-4)GlcNAc(b1-4)[Fuc(a1-6)]GlcNAc
How it was run: as §1

[28] = target: Gal(b1-3)GlcNAc(b1-3)Gal(b1-3)GlcNAc
How it was run: as §1

[29] = target: Gal(b1-3)GlcNAc(b1-3)Gal(b1-4)Glc
How it was run: as §1

[30] = target: Gal(b1-3)GlcNAc(b1-3)Gal(b1-4)GlcNAc
How it was run: as §1

[31] = target: Gal(b1-3)GlcNAc(b1-3)Gal(b1-4)GlcNAc(b1-6)[Gal(b1-3)GlcNAc(b1-3)]Gal(b1-4)Glc
How it was run: as §1

[32] = target: Gal(b1-3)GlcNAc(b1-3)Gal(b1-4)[Fuc(a1-3)]GlcNAc(b1-6)[Gal(b1-3)GlcNAc(b1-3)]Gal(b1-4)Glc
How it was run: as §1

[33] = target: Gal(b1-3)GlcNAc(b1-3)GalNAc
How it was run: as §1

[34] = target: Gal(b1-3)GlcNAc(b1-6)Gal(b1-4)GlcNAc
How it was run: as §1

[35] = target: Gal(b1-3)[Fuc(a1-4)]GlcNAc
How it was run: as §1

[36] = target: Gal(b1-3)[Fuc(a1-4)]GlcNAc(b1-2)Man(a1-3)[Gal(b1-3)[Fuc(a1-4)]GlcNAc(b1-2)Man(a1-6)]Man(b1-4)GlcNAc(b1-4)GlcNAc
How it was run: as §1

[37] = target: Gal(b1-3)[Fuc(a1-4)]GlcNAc(b1-2)Man(a1-3)[Gal(b1-3)[Fuc(a1-4)]GlcNAc(b1-2)Man(a1-6)]Man(b1-4)GlcNAc(b1-4)[Fuc(a1-6)]GlcNAc
How it was run: as §1

B1: SBD (Rhizopus oryzae), P07683 (protein)
chain: ASIPSSASVQLDSYNYDGSTFSGKIYVKNIAYSKKVTVVYADGSDNWNNNGNIIAASFSGPISGSNYEYWTFSASVKGIKEFYIKYEVSGKTYYDNNNSANYQVS
**Q.** Which results are given for B1?
**A.** glycan array binding signal (z-score) [1]: -0.133; glycan array binding signal (z-score) [2]: -0.461; glycan array binding signal (z-score) [3]: -0.057; glycan array binding signal (z-score) [4]: 0.477; glycan array binding signal (z-score) [5]: -0.084; glycan array binding signal (z-score) [6]: -0.422; glycan array binding signal (z-score) [7]: 1.95; glycan array binding signal (z-score) [8]: -0.555; glycan array binding signal (z-score) [9]: -0.215; glycan array binding signal (z-score) [10]: 2.59; glycan array binding signal (z-score) [11]: 0.2; glycan array binding signal (z-score) [12]: -0.786; glycan array binding signal (z-score) [13]: -0.205; glycan array binding signal (z-score) [14]: -0.342; glycan array binding signal (z-score) [15]: -0.182; glycan array binding signal (z-score) [16]: -0.379; glycan array binding signal (z-score) [17]: -0.074; glycan array binding signal (z-score) [18]: -0.406; glycan array binding signal (z-score) [19]: -0.303; glycan array binding signal (z-score) [20]: 0.031; glycan array binding signal (z-score) [21]: 0.074; glycan array binding signal (z-score) [22]: 0.23; glycan array binding signal (z-score) [23]: 0.048; glycan array binding signal (z-score) [24]: 0.042; glycan array binding signal (z-score) [25]: 0.838; glycan array binding signal (z-score) [26]: 0.227; glycan array binding signal (z-score) [27]: 0.027; glycan array binding signal (z-score) [28]: -0.135; glycan array binding signal (z-score) [29]: 2.02; glycan array binding signal (z-score) [30]: -0.041; glycan array binding signal (z-score) [31]: -0.398; glycan array binding signal (z-score) [32]: 0.647; glycan array binding signal (z-score) [33]: -0.953; glycan array binding signal (z-score) [34]: 0.287; glycan array binding signal (z-score) [35]: -0.029; glycan array binding signal (z-score) [36]: 1.14; glycan array binding signal (z-score) [37]: 0.316
